Experimental data: patent publication US4303592A (priority 1980, dated 1981)
At least one read-out could not be matched to a standard name with certainty.

Legend:
Type in all cases: biochemical
Conditions in all cases: pseudo-first-order conditions; estimate
[1] = target: T1, Trypsin (Bos taurus, UniProt P00760); assay: inhibition/inactivation of bovine trypsin
T1 sequence (P00760 24-246): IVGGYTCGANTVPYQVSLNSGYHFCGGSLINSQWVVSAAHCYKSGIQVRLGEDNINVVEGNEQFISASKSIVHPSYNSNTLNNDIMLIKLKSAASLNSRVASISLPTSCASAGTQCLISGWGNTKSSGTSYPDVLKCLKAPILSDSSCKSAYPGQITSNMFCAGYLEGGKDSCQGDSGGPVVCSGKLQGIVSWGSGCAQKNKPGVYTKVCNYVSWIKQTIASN

[2] = target: Thrombin (Homo sapiens, UniProt P00734); assay: inhibition/inactivation of human thrombin
[3] = target: T2, Cl-s (Homo sapiens, UniProt P09871); assay: inhibition/inactivation of human Cls
T2 sequence (P09871 438-688 limits assumed): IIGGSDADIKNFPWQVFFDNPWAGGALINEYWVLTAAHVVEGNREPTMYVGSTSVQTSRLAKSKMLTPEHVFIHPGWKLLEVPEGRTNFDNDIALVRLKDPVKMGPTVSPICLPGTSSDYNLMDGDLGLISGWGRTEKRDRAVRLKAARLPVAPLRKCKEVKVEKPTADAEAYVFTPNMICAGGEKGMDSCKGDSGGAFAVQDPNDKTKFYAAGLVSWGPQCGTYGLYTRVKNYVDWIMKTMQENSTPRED
T2 sequence (P09871 16-437 partner limits assumed): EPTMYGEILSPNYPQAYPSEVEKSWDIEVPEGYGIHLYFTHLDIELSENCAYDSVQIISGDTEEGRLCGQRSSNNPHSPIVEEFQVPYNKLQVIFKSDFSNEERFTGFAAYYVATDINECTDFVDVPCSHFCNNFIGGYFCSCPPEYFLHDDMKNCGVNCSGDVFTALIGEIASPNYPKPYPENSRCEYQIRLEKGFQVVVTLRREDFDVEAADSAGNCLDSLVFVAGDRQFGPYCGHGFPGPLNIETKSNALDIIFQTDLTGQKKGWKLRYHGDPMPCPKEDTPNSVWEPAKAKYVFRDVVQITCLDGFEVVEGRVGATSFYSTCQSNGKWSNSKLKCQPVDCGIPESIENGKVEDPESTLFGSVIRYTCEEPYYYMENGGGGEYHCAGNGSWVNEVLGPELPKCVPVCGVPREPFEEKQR

SMILES: N=C(N)c1ccc(CS(=O)(=O)F)cc1 [PAPMSF, p-amidinophenylmethylsulfonylfluoride]
- rate constant for inactivation [1]: 0.058 s⁻¹
- rate constant for inactivation [2]: 0.026 s⁻¹
- rate constant for inactivation [3]: 0.008 s⁻¹
